No constants are given. Whether binding was seen depends on the method and setting. Some binding calls cover weakened binding; strength is not graded here.

This test addresses p53 (UniProt P04637). Put plainly: yeast two-hybrid.

B1: KChAP (as used in yeast two-hybrid experiments) (protein)
chain: MKIKELYRRRFPRKTLGPSDLSLLSLPPGTSPVGSPGPLAPIPPTLLAPGTLLGPKREVDMHPPLPQPVHPDVTMKPLPFYEVYGELIRPTTLASTSSQRFEEAHFTFALTPQQVQQILTSREVLPGAKCDYTIQVQLRFCLCETSCPQEDYFPPNLFVKVNGKLCPLPGYLPPTKNGAEPKRPSRPINITPLARLSATVPNTIVVNWSSEFGRNYSLSVYLVRQLTAGTLLQKLRAKGIRNPDHSRALIKEKLTADPDSEVATTSLRVSLMCPLGKMRLTVPCRALTCAHLQSFDAALYLQMNEKKPTWTCPVCDKKAPYESLIIDGLFMEILSSCSDCDEIQFMEDGSWCPMKPKKEASEVCPPPGYGLDGLQYSPVQGGDPSENKKKVEVIDLTIESSSDEEDLPPTKKHCSVTSAAIPALPGSKGVLTSGHQPSSVLRSPAMGTLGGDFLSSLPLHEYPPAFPLGADIQGLDLFSFLQTESQHYGPSVITSLDEQDALGHFFQYRGTPSHFLGPLAPTLGSSHCSATPAPPPGRVSSIVAPGGALREGHGGPLPSGPSLTGCRSDIISLD
Take B1: the binding result is reported as “binds”.

The values above are taken from patent US20040259791A1.
